# US11229681
# Amino acid sequences for entries named in this document (tags omitted). A change or cut given only in a name is not applied to a line headed by its entry.
# UniProt P06756: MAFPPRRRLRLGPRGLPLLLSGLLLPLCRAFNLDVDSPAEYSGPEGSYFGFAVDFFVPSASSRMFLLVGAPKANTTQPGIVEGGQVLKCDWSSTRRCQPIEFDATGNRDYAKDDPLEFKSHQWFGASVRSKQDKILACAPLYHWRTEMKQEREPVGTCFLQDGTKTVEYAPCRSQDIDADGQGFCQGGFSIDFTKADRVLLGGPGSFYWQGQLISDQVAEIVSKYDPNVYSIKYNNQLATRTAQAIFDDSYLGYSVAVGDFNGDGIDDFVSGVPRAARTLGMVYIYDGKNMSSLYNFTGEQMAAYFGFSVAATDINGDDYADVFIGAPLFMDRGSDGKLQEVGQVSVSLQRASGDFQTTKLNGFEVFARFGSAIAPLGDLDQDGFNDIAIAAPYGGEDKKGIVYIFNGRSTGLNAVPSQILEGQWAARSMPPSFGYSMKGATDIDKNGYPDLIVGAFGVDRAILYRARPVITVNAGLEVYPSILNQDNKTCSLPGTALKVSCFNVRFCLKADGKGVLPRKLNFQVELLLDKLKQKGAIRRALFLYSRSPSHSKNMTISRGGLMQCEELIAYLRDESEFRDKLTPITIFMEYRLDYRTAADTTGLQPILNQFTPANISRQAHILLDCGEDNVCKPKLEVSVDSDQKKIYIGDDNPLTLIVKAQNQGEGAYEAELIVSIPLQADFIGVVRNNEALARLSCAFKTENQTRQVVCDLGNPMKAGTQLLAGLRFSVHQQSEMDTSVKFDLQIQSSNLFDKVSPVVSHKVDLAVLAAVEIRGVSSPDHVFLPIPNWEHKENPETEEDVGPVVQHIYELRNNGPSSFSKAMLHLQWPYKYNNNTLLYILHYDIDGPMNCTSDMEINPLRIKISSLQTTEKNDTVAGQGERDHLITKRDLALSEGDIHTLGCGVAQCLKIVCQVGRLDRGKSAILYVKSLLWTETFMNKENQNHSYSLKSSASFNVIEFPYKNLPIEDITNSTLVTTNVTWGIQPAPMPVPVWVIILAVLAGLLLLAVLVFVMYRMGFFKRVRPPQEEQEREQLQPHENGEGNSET
# UniProt P09038: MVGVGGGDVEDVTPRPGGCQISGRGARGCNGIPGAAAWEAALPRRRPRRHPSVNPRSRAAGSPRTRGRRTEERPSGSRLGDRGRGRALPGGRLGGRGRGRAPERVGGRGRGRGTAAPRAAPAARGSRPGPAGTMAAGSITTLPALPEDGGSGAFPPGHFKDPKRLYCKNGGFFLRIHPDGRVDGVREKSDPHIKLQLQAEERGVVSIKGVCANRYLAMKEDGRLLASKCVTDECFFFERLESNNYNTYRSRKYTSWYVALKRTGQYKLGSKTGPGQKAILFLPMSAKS
# No constants are given. Whether binding was seen depends on the method and setting. Some entries that bind do so weakly or less than the wild type.
# Legend:
# [1] = molecular target: recombinant soluble integrin αvβ3 (UniProt P06756); test: SPR, soluble αvβ3 immobilized on the chip, FGF2 mutant injected
# [2] = molecular target: recombinant soluble integrin αvβ3 (UniProt P06756); test: SPR, soluble αvβ3 immobilized
# [3] = molecular target: recombinant soluble integrin αvβ3 (UniProt P06756); test: SPR, soluble αvβ3 immobilized on the chip, FGF2 injected
# [4] = molecular target: recombinant integrin αvβ3 on K562 cells (αvβ3-K562 cells) (UniProt P06756); test: adhesion assay with αvβ3-K562 cells
binding [1],binding [2],binding [3],binding [4],Substance
binds,binds,–,–,K125E FGF2 mutant (from UniProt P09038 143-288) (ligand)
–,binds,binds,binds,wild-type human FGF2 (SEQ ID NO:1) (from UniProt P09038 143-288) (ligand)
